Assay results as given in the supplement of paper PMC4604168 (melanoma cell lines).
The other results are listed elsewhere or left out. Repeats are few or missing, and single values can be far off.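 Imaging used 1,536-well plates; nuclei positive for cleaved PARP by antibody were divided by total DNA-stained nuclei to yield the apoptosis fraction. Doses for screening kept most cells viable, and cell lines differ markedly in resting and induced cleaved-PARP levels.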

Columns and labels:
Experiment in all cases: cleaved PARP positive nuclei fraction relative to DMSO control; melanoma cells; higher = more apoptosis
Settings in all cases: library dose: low library concentration; 72 h
[1] = system: 501Mel
[2] = system: A101D
[3] = system: A2058
[4] = system: A375
[5] = system: C32
[6] = system: CBRC008 (line from a melanoma biopsy)
[7] = system: CBRC014 (line from a melanoma biopsy)
[8] = system: CBRC016 (line from a melanoma biopsy)
[9] = system: CBRC017 (line from a melanoma biopsy)
[10] = system: CBRC034 (line from a melanoma biopsy)
[11] = system: COLO792
[12] = system: COLO800
[13] = system: COLO829
[14] = system: G361
[15] = system: IPC-298
[16] = system: IST-MEL1
[17] = system: LB2518-MEL
[18] = system: LOXIMVI
[19] = system: MEL-HO

Compound | cleaved PARP positive nuclei fraction [1] [%] | cleaved PARP positive nuclei fraction [2] [%] | cleaved PARP positive nuclei fraction [3] [%] | cleaved PARP positive nuclei fraction [4] [%] | cleaved PARP positive nuclei fraction [5] [%] | cleaved PARP positive nuclei fraction [6] [%] | cleaved PARP positive nuclei fraction [7] [%] | cleaved PARP positive nuclei fraction [8] [%] | cleaved PARP positive nuclei fraction [9] [%] | cleaved PARP positive nuclei fraction [10] [%] | cleaved PARP positive nuclei fraction [11] [%] | cleaved PARP positive nuclei fraction [12] [%] | cleaved PARP positive nuclei fraction [13] [%] | cleaved PARP positive nuclei fraction [14] [%] | cleaved PARP positive nuclei fraction [15] [%] | cleaved PARP positive nuclei fraction [16] [%] | cleaved PARP positive nuclei fraction [17] [%] | cleaved PARP positive nuclei fraction [18] [%] | cleaved PARP positive nuclei fraction [19] [%]
C[C@@H](Oc1cc(-c2cnn(C3CCNCC3)c2)cnc1N)c1c(Cl)ccc(F)c1Cl [Crizotinib] + CNC(=O)c1cc(Oc2ccc(NC(=O)Nc3ccc(Cl)c(C(F)(F)F)c3)cc2)ccn1 [sorafenib] (first compound 0.2 µM, partner dose 0.4 µM) | 228 | 93 | 243 | 78.6 | 118 | 59.7 | 111 | 116 | 82 | 87.6 | 68.7 | 48.3 | 125 | 126 | 51.7 | 62.3 | 263 | 57.5 | 120
Cc1cc(Nc2cc(N3CCN(C)CC3)nc(/C=C/c3ccccc3)n2)n[nH]1 + OCc1c[nH]c2ccccc12 [Indole-3-carbinol] (first compound 0.04 µM, partner dose 0.8 µM) | 251 | 41.9 | 58 | 170 | 120 | 49.5 | 87.4 | 75 | 88 | 40.7 | 117 | 101 | 45 | 84.5 | 86.4 | 127 | 243 | 46.3 | 65.3
CN1CCN(c2ccc3nc(-c4c(N)c5c(F)cccc5[nH]c4=O)[nH]c3c2)CC1 [Dovitinib] + Nc1ncn([C@H]2C[C@H](O)[C@@H](CO)O2)c(=O)n1 [decitabine] (first compound 0.1 µM, partner dose 0.1 µM) | 84.3 | 166 | 347 | 134 | 260 | 102 | 96.5 | 167 | 126 | 64.7 | 54.6 | 129 | 105 | 282 | 59.7 | 136 | 227 | 34 | 154
CO[C@H]1C[C@@H]2CC[C@@H](C)[C@@](O)(O2)C(=O)C(=O)N2CCCC[C@H]2C(=O)O[C@H]([C@H](C)C[C@@H]2CC[C@@H](OCCO)[C@H](OC)C2)CC(=O)[C@H](C)/C=C(\C)[C@@H](O)[C@@H](OC)C(=O)[C@H](C)C[C@H](C)/C=C/C=C/C=C/1C [everolimus] + Nc1cccc2c1CN(C1CCC(=O)NC1=O)C2=O [lenalidomide] (first compound 0.02 µM, partner dose 1 µM) | 991 | 223 | 122 | 607 | 98.6 | 162 | 98.7 | 143 | 110 | 126 | 144 | 66.6 | 59.7 | 184 | 119 | 37.3 | 164 | 58.1 | 83.1
C=C(c1ccc(C(=O)O)cc1)c1cc2c(cc1C)C(C)(C)CCC2(C)C [Bexarotene] + Nc1nc(F)nc2c1ncn2[C@@H]1O[C@H](CO)[C@@H](O)[C@@H]1O [fludarabine] (first compound 2 µM, partner dose 0.2 µM) | 2530 | 100 | 110 | 5720 | 76.1 | 86.6 | 110 | 217 | 130 | 34.5 | 167 | 76.2 | 71.1 | 18.2 | 97.4 | 266 | 107 | 103 | 189
C[C@@H](Oc1cc(-c2cnn(C3CCNCC3)c2)cnc1N)c1c(Cl)ccc(F)c1Cl [Crizotinib] + CO[C@H]1C[C@@H]2CC[C@@H](C)[C@@](O)(O2)C(=O)C(=O)N2CCCC[C@H]2C(=O)O[C@H]([C@H](C)C[C@@H]2CC[C@@H](OCCO)[C@H](OC)C2)CC(=O)[C@H](C)/C=C(\C)[C@@H](O)[C@@H](OC)C(=O)[C@H](C)C[C@H](C)/C=C/C=C/C=C/1C [everolimus] (first compound 0.2 µM, partner dose 0.02 µM) | 391 | 56.8 | 128 | 356 | 204 | 104 | 87.8 | 134 | 119 | 71.8 | 218 | 80 | 108 | 207 | 234 | 118 | 409 | 67.7 | 174
Cn1c(=O)n(-c2ccc(C(C)(C)C#N)cc2)c2c3cc(-c4cnc5ccccc5c4)ccc3ncc21 + Cn1c(Nc2ccc(C(F)(F)F)cc2)nc2cc(Oc3ccnc(-c4ncc(C(F)(F)F)[nH]4)c3)ccc21 [CHIR265] (first compound 0.004 µM, partner dose 0.08 µM) | 2950 | 73.6 | 147 | 396 | 96.5 | 491 | 246 | 187 | 99.4 | 103 | 222 | 40.5 | 159 | 194 | 89.2 | 149 | 306 | 127 | 78
Cn1c(=O)n(-c2ccc(C(C)(C)C#N)cc2)c2c3cc(-c4cnc5ccccc5c4)ccc3ncc21 + CN1CCN(c2ccc3nc(-c4c(N)c5c(F)cccc5[nH]c4=O)[nH]c3c2)CC1 [Dovitinib] (first compound 0.004 µM, partner dose 0.1 µM) | 117 | 109 | 61.9 | 222 | 74.5 | 31.1 | 96.9 | 60.3 | 88.7 | 59.5 | 83.1 | 99.4 | 87.5 | 111 | 89.3 | 191 | 112 | 128 | 159
O=C(O)[C@@H]1[O][Sb](=[O])([O][Sb]2(=[O])[O][C@H]([C@H](O)CO)[C@H](O)[C@H](C(=O)O)[O]2)[O][C@H]([C@H](O)CO)[C@@H]1O (stereo not given in full) [stibogluconate] + C=C(c1ccc(C(=O)O)cc1)c1cc2c(cc1C)C(C)(C)CCC2(C)C [Bexarotene] (first compound 2 µM, partner dose 2 µM) | 123 | 93.8 | 106 | 132 | 81.6 | 96.2 | 106 | 137 | 126 | 60.8 | 105 | 67.7 | 44.3 | 183 | 119 | 69.2 | 99.1 | 96.6 | 112
CO[C@H]1C[C@@H]2CC[C@@H](C)[C@@](O)(O2)C(=O)C(=O)N2CCCC[C@H]2C(=O)O[C@H]([C@H](C)C[C@@H]2CC[C@@H](OCCO)[C@H](OC)C2)CC(=O)[C@H](C)/C=C(\C)[C@@H](O)[C@@H](OC)C(=O)[C@H](C)C[C@H](C)/C=C/C=C/C=C/1C [everolimus] + OCc1c[nH]c2ccccc12 [Indole-3-carbinol] (first compound 0.02 µM, partner dose 0.8 µM) | 353 | 233 | 67.9 | 776 | 80.3 | 74.2 | 99.2 | 171 | 110 | 49.4 | 187 | 121 | 96.4 | 81 | 166 | 192 | 149 | 217 | 82.3
CN1CCN(c2ccc3nc(-c4c(N)c5c(F)cccc5[nH]c4=O)[nH]c3c2)CC1 [Dovitinib] + COc1ccc(Cl)c(Nc2nc3ccccc3nc2NS(=O)(=O)c2cccc(NC(=O)C(C)(C)N)c2)c1 [XL147] (first compound 0.1 µM, partner dose 0.8 µM) | 81 | 175 | 154 | 224 | 83.6 | 304 | 98.6 | 63.6 | 121 | 101 | 46.6 | 171 | 26.5 | 107 | 91.3 | 98.6 | 57 | 170 | 81.1
CC(C)C[C@H](NC(=O)[C@H](Cc1ccccc1)NC(=O)c1cnccn1)B(O)O [Bortezomib] + O=C(O)[C@@H]1[O][Sb](=[O])([O][Sb]2(=[O])[O][C@H]([C@H](O)CO)[C@H](O)[C@H](C(=O)O)[O]2)[O][C@H]([C@H](O)CO)[C@@H]1O [stibogluconate] (first compound 0.001 µM, partner dose 2 µM) | 604 | 269 | 57 | 105 | 79.4 | 388 | 176 | 370 | 191 | 241 | 60.4 | 53.9 | 191 | 1320 | 92.5 | 65.2 | 149 | 128 | 111
Cn1c(=O)n(-c2ccc(C(C)(C)C#N)cc2)c2c3cc(-c4cnc5ccccc5c4)ccc3ncc21 + C=C(c1ccc(C(=O)O)cc1)c1cc2c(cc1C)C(C)(C)CCC2(C)C [Bexarotene] (first compound 0.004 µM, partner dose 2 µM) | 108 | 53.1 | 41.3 | 65.5 | 74 | 84.4 | 90.9 | 54.2 | 102 | 53.9 | 112 | 36.3 | 166 | 154 | 133 | 64.9 | 84.9 | 154 | 156
O=C(O)[C@@H]1[O][Sb](=[O])([O][Sb]2(=[O])[O][C@H]([C@H](O)CO)[C@H](O)[C@H](C(=O)O)[O]2)[O][C@H]([C@H](O)CO)[C@@H]1O (stereo not given in full) [stibogluconate] + CO[C@H]1C[C@@H]2CC[C@@H](C)[C@@](O)(O2)C(=O)C(=O)N2CCCC[C@H]2C(=O)O[C@H]([C@H](C)C[C@@H]2CC[C@@H](OCCO)[C@H](OC)C2)CC(=O)[C@H](C)/C=C(\C)[C@@H](O)[C@@H](OC)C(=O)[C@H](C)C[C@H](C)/C=C/C=C/C=C/1C [everolimus] (first compound 2 µM, partner dose 0.02 µM) | 501 | 50.8 | 51.1 | 1340 | 109 | 122 | 73 | 144 | 291 | 52.6 | 122 | 205 | 125 | 78.4 | 159 | 148 | 140 | 182 | 36.4
CC(C)C[C@H](NC(=O)[C@H](Cc1ccccc1)NC(=O)c1cnccn1)B(O)O [Bortezomib] + Nc1nc(F)nc2c1ncn2[C@@H]1O[C@H](CO)[C@@H](O)[C@@H]1O [fludarabine] (first compound 0.001 µM, partner dose 0.2 µM) | 8600 | 251 | 41.9 | 1620 | 108 | 629 | 160 | 303 | 425 | 116 | 118 | 59.4 | 209 | 2460 | 52.2 | 168 | 760 | 48.9 | 139

Part of the list above with just cleaved PARP positive nuclei fraction [1] [%], cleaved PARP positive nuclei fraction [9] [%] and cleaved PARP positive nuclei fraction [2] [%]:

| Compound | cleaved PARP positive nuclei fraction [1] [%] | cleaved PARP positive nuclei fraction [9] [%] | cleaved PARP positive nuclei fraction [2] [%] |
| --- | --- | --- | --- |
| C[C@@H](Oc1cc(-c2cnn(C3CCNCC3)c2)cnc1N)c1c(Cl)ccc(F)c1Cl [Crizotinib] + CO[C@H]1C[C@@H]2CC[C@@H](C)[C@@](O)(O2)C(=O)C(=O)N2CCCC[C@H]2C(=O)O[C@H]([C@H](C)C[C@@H]2CC[C@@H](OCCO)[C@H](OC)C2)CC(=O)[C@H](C)/C=C(\C)[C@@H](O)[C@@H](OC)C(=O)[C@H](C)C[C@H](C)/C=C/C=C/C=C/1C [everolimus] (first compound 0.2 µM, partner dose 0.02 µM) | 391 | 119 | 56.8 |
| Cn1c(=O)n(-c2ccc(C(C)(C)C#N)cc2)c2c3cc(-c4cnc5ccccc5c4)ccc3ncc21 + Cn1c(Nc2ccc(C(F)(F)F)cc2)nc2cc(Oc3ccnc(-c4ncc(C(F)(F)F)[nH]4)c3)ccc21 [CHIR265] (first compound 0.004 µM, partner dose 0.08 µM) | 2950 | 99.4 | 73.6 |
